{"source": "patent EP2533787B1", "about": "“USE OF ISORHAMNETIN TRIGLYCOSIDES” (Dr. Willmar Schwabe GmbH & Co. KG, priority 2010, dated 2011)", "test_system": "Ratten", "details": "in vivo, sc", "data": [{"smiles": "CN1C2CC(OC(=O)C(CO)c3ccccc3)CC1C1OC12", "note": "(stereo not shown) [Scopolamin]", "values": [{"measurement": "Häufigkeit des Findens der Plattform", "result": "deutlich seltener"}]}]}
